The assay concerns the target human serum albumin (human) (UniProt P02768). The experiment in a line: SPR; HSA bound to the chip, SON-1010 added, then FcRn or SPARC together with SON-1010 (ternary complex); pH 7.2; both purified. In general terms: Surface plasmon resonance follows binding to a sensor surface in real time, without labels.

Protein sequences, listed by entry. Tags and fused reporters are not part of them. Residues count along the entry.
UniProt P02768, residues 25-609: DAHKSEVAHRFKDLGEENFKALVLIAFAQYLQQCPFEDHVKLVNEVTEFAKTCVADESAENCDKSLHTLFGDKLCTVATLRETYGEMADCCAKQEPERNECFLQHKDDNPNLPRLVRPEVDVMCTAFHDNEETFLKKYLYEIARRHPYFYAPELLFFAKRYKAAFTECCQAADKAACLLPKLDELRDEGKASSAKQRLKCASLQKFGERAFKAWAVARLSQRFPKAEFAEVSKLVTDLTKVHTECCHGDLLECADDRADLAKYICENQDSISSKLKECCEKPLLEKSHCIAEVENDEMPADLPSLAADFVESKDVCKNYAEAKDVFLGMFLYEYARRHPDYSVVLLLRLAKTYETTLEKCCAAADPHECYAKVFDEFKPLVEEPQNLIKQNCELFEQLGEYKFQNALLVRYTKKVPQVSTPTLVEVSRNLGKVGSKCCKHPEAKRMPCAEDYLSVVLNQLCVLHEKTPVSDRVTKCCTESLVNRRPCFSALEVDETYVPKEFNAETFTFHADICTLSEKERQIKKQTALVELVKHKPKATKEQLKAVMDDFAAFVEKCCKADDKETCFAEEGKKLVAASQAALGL

Results are given in words; binding and its absence hold for the method and conditions named.

B1: secreted protein acidic and rich in cysteine (natural protein, UniProt P09486 18-303, looked up)
chain: APQQEALPDETEVVEETVAEVTEVSVGANPVQVEVGEFDDGAEETEEEVVAENPCQNHHCKHGKVCELDENNTPMCVCQDPTSCPAPIGEFEKVCSNDNKTFDSSCHFFATKCTLEGTKKGHKLHLDYIGPCKYIPPCLDSELTEFPLRMRDWLKNVLVTLYERDEDNNLLTEKQKLRVKKIHENEKRLEAGDHPVELLARDFEKNYNMYIFPVHWQFGQLDQHPIDGYLSHTELAPLRAPLIPMEHCTTRFFETCDLDNDKYIALDEWAGCFGIKQKDIDKDLVI
notes: SPARC (secreted protein acidic and rich in cysteine); also called SPARC
B1: the binding entry was “no binding (condition: at pH 7.2)”.

The values above are taken from PMC11652653, “SON-1010: an albumin-binding IL-12 fusion protein that improves cytokine half-life, targets tumors, and enhances therapeutic efficacy” (Frontiers in Immunology, 2024).
